Source: patent US20100056612 (published 2010)

Assay: general procedure: hybrid (solid and solution phase) peptide synthesis; DIC or TBTU or HATU and HObt, DIPEA; DCC/HOBt
Conditions: conjugation step, TFA salt, can be converted to HCl salt

Substance | conjugation yield
6^A,6^D-dideoxy-6^A,6^D-di(Ala(β)-Gly-Gly-Lys-Lys-Lys-NH2)amino-β-cyclodextrin (GGKKK; beta-Ala, amidated, on beta-cyclodextrin; printed: Gly-Gly-Lys-Lys-Lys-) | 53%
6^A,6^D-dideoxy-6^A,6^D-di(Ala(β)-Gly-Lys-Lys-Lys-Lys-NH2)amino-β-cyclodextrin (GKKKK; beta-Ala, amidated, on beta-cyclodextrin; printed: Gly-Lys-Lys-Lys-Lys-) | 25%
6^A,6^D-dideoxy-6^A,6^D-di(Ala(β)-Gly-Lys-Lys-Lys-NH2)amino-β-cyclodextrin (GKKK; beta-Ala, amidated, on beta-cyclodextrin; printed: Gly-Lys-Lys-Lys-) | 81%
6^A,6^D-dideoxy-6^A,6^D-di(Gly-Arg-Arg-Arg-NH2)amino-β-cyclodextrin (GRRR; amidated, on beta-cyclodextrin; printed: Gly-Arg-Arg-Arg-) | 88%
6^A,6^D-dideoxy-6^A,6^D-di(Gly-Gly-Lys-Lys-Lys-Lys-NH2)amino-β-cyclodextrin (GGKKKK; amidated, on beta-cyclodextrin; printed: Gly-Gly-Lys-Lys-Lys-Lys-) | 13%
6^A,6^D-dideoxy-6^A,6^D-di(Gly-Lys-Lys-Lys-Lys-NH2)amino-β-cyclodextrin (GKKKK; amidated, on beta-cyclodextrin; printed: Gly-Lys-Lys-Lys-Lys-) | 43%
6^A,6^D-dideoxy-6^A,6^D-di[Gly-Lys(Boc)-Lys(Boc)-Lys(Boc)-Boc]amino-nonadecakis-O-benzyl-β-cyclodextrin | 63%
6^A,6^D-dideoxy-6^A,6^D-di[Lys-(Gly-Lys-Lys-Lys-NH2)-Gly-Lys-Lys-Lys-NH2]amino-β-cyclodextrin (GKKK; Lys-branched, amidated, on beta-cyclodextrin; printed: Gly-Lys-Lys-Lys-) | 71%

Same assay, conditions: coupling step, TFA salt, can be converted to HCl salt

Substance | step yield
6^A,6^D-dideoxy-6^A,6^D-di(Gly-Arg-Arg-Arg-Gly-Lys-Lys-Lys-NH2)amino-β-cyclodextrin (GRRRGKKK; two copies conjugated to β-cyclodextrin; printed: Gly-Arg-Arg-Arg-Gly-Lys-Lys-Lys-) | 21%

Same assay, conditions: late stage modification step, TFA salt, can be converted to HCl salt

Substance | step yield
6^A,6^D-dideoxy-6^A,6^D-di[Gly-Lys(Boc)-Lys(Boc)-Lys(Boc)-Boc]amino-β-cyclodextrin | 66%
